Data source: PubChem BioAssay AID1259405 (NCATS, 2018)
This is a random part of about 50,000 reagents tested. About 4,000 of them (8%) count as active. 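Mouse siRNA library applied to hamster cells; one well for each siRNA.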 Entries without a mark were called inactive. The numbers tell different reagents against one gene apart.

Test: 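Mouse-designed siRNAs used to find CHO productivity engineering targets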 (primary screen)
System: Chinese hamster CHO-K1 ovary cells with stable secreted eGFP expression
Reagents: single siRNA against mouse genes, 0.8 pmol siRNA per well (2 µl of 400 nM stock)
Duration: 3 days
Measured: 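Per-well intracellular GFP measured by laser scanning cytometry, plus viability from ATP luminescence, each relative to plate median of non-targeting control wells, in %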
Direction: GFP, % of control: higher = more GFP per well, higher productivity; viability (ATP), % of control: higher = more viable cells (more ATP)
Active means: 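a knock-down is called active if GFP reaches 120% or more of non-targeting control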

gene knocked down | siRNA no. | GFP, % of control | viability (ATP), % of control
Rab44 | 1 | 102 | 88.3
Rab44 | 2 | 82.3 | 67.2
Rab44 | 3 | 37.6 | 57.9
Pogk | 1 | 79.5 | 125
Pogk | 2 | 87.7 | 67.6
Plagl2 | 1 | 65.7 | 79.6
Plagl2 | 2 | 106 | 98.3
Plagl2 | 3 | 64.2 | 73.7
Rxrg | 1 | 98.7 | 74.7
Rxrg | 2 | 122 (active) | 78.9
Rxrg | 3 | 67.4 | 75.9
Olfr242 | 1 | 59.2 | 56
Olfr242 | 2 | 63.5 | 67.9
Olfr242 | 3 | 52.6 | 76.1
Or1j19 | 1 | 125 (active) | 102
Or1j19 | 2 | 175 (active) | 82.4
Or1j19 | 3 | 71.2 | 109
Treh | 1 | 108 | 77.1
Treh | 2 | 60.3 | 56.6
Treh | 3 | 67.9 | 92.8
Rpp25l | 1 | 97.5 | 71.1
Rpp25l | 2 | 93.5 | 84.8
Rpp25l | 3 | 63.2 | 57.9
Cnp | 1 | 103 | 84.2
Cnp | 2 | 109 | 98.1
Cnp | 3 | 51.9 | 53.5
Dact1 | 1 | 64.8 | 84.8
Dact1 | 2 | 54.3 | 59.5
Dact1 | 3 | 87.4 | 87.1
Gxylt2 | 1 | 109 | 70
Gxylt2 | 2 | 61.1 | 83.4
Gxylt2 | 3 | 86.1 | 112
Ndufaf1 | 1 | 57 | 70.9
Ndufaf1 | 2 | 59.1 | 64.8
Ndufaf1 | 3 | 101 | 57.1
Aldh3a1 | 1 | 75.8 | 82.2
Aldh3a1 | 2 | 134 (active) | 93.7
Aldh3a1 | 3 | 61.3 | 55.6
Meltf | 1 | 67.6 | 78.7
Meltf | 2 | 73.2 | 76.2
Meltf | 3 | 72.5 | 77.1

A stretch of the results above, for reference:
gene knocked down | siRNA no. | GFP, % of control | viability (ATP), % of control
Cnp | 2 | 109 | 98.1
Cnp | 3 | 51.9 | 53.5
Dact1 | 1 | 64.8 | 84.8
Dact1 | 2 | 54.3 | 59.5
Dact1 | 3 | 87.4 | 87.1
Gxylt2 | 1 | 109 | 70
Gxylt2 | 2 | 61.1 | 83.4
Gxylt2 | 3 | 86.1 | 112
Ndufaf1 | 1 | 57 | 70.9
Ndufaf1 | 2 | 59.1 | 64.8
Ndufaf1 | 3 | 101 | 57.1
Aldh3a1 | 1 | 75.8 | 82.2
Aldh3a1 | 2 | 134 (active) | 93.7
Aldh3a1 | 3 | 61.3 | 55.6

Next results:
gene knocked down | siRNA no. | GFP, % of control | viability (ATP), % of control
Adgrg7 | 1 | 77.1 | 68.3
Adgrg7 | 2 | 61.8 | 58.3
Adgrg7 | 3 | 55 | 42.2
Iqsec1 | 1 | 58.4 | 77.4
Iqsec1 | 2 | 36.3 | 54.7
Iqsec1 | 3 | 208 (active) | 72
Cacfd1 | 1 | 66.3 | 80.4
Cacfd1 | 2 | 60.6 | 66
Cacfd1 | 3 | 86.6 | 110
Or11a4 | 1 | 54.7 | 45.3
Or11a4 | 2 | 73 | 71.6
Or11a4 | 3 | 101 | 92.4
Skic2 | 1 | 52.2 | 50.6
Skic2 | 2 | 62.3 | 31.5
Skic2 | 3 | 67 | 45.6
Slc35a3 | 1 | 99.8 | 124
Slc35a3 | 2 | 72.5 | 89.6
Slc35a3 | 3 | 81.4 | 83.7
Or4f4b | 1 | 139 (active) | 94.2
Or4f4b | 2 | 78.6 | 80.2
Or4f4b | 3 | 73.8 | 98.3
Aqp9 | 1 | 188 (active) | 50.1
Aqp9 | 2 | 70.8 | 62
Aqp9 | 3 | 102 | 66.5
Mtx1 | 1 | 87.4 | 55.1
Mtx1 | 2 | 89.7 | 91
Mtx1 | 3 | 80.6 | 49.7
Foxd3 | 1 | 148 (active) | 79.4
Foxd3 | 2 | 58.1 | 57.2
Thumpd3 | 1 | 74.9 | 79.3
Thumpd3 | 2 | 79 | 87.3
Thumpd3 | 3 | 66.8 | 83.7
Gnl3l | 1 | 68.7 | 52.5
Gnl3l | 2 | 60.2 | 49.8
Gnl3l | 3 | 61.9 | 64
Tmc7 | 1 | 64 | 47.5
Tmc7 | 2 | 60.4 | 33.8
Tmc7 | 3 | 70.6 | 111
Tle1 | 1 | 92.6 | 70
Tle1 | 2 | 45.9 | 70.3
Tle1 | 3 | 89.7 | 98.2
Zeb2 | 1 | 79.8 | 95
Zeb2 | 2 | 70.9 | 51
Zeb2 | 3 | 88.4 | 94.3
